# These are yes or no findings as the source states them, for the method shown. Binding can be weak; no strength is given.
# Target: HLA-A*0201 (human)
# Experiment: UV-ligand exchange; anti-b2m ELISA
row,binding,Binder
1,binds,SLLAQNTSWLL [THY1-001]
2,binds,ALVDHTPYL [VCAN-002]
3,binds,KLFGEKTYL [SERPINB3-001]
4,binds,KIYNEFISV [RGS4-001]
5,binds,FQYDHEAFL [RCN1-001]
6,binds,KLVEFDFLGA [TACC3-001]
7,binds,VLSVVEVTL [RNF213-001]
8,binds,VLLPVEVATHYL [SLC34A2-001]
9,binds,TLISRLPAV [RCC1-001]

# Continued, binder first:
row,Binder,binding
1,VLAPLFVYL [FZD-001],binds
2,GLYPDAFAPV [ELANE-001],binds
3,TVAEVIQSV [KIF26B-001],binds
4,SLHFLILYV [ATP-001],binds
5,ILFPDIIARA [MAGEF1-001],binds
6,SLVAVELEKV [COG4-001],binds
7,ALASVIKEL [IFT81-001],binds
8,FLIPIYHQV [ACACA-001],binds
9,ILQDRLNQV [CDC6-001],binds
10,SILTIEDGIFEV [HSP-002],binds
11,GLAEDIDKGEV [EEF2-002],binds
12,YLPHAPPFA [JUNB-001],binds
13,NLLAEIHGV [DPYSL4-001],binds
14,AILDTLYEV [PLEKHA8-001],binds
15,TLTNIIHNL [ORMDL1-002],binds
16,KLLEYIEEI [HMMR-001],binds
17,SLIDADPYL [CCNA2-001],binds
18,YLAPFLRNV [CNOT1-001],binds
19,VVDKTLLLV [C11orf24-001],binds
20,SLFGNSGILENV [CEP192-001],binds
21,KLSWDLIYL [CERC-001],binds

# — patent US20170319675A1
